Experimental data published in article PMC12040169 (PLOS Biology, 2025).
The other results are listed elsewhere or left out.

system: T1, CTL2-GFP (C. trachomatis L2/434/Bu, GFP-expressing); set-up: species or system HeLa; Intracellular C. trachomatis growth in HeLa cells, bulk GFP fluorescence relative to DMSO; settings: bulk GFP, single well; 28.5 h, 10 µM; inhibitor
T1 construct: L2/434/Bu, GFP-expressing

SMILES | % of control remaining [%]
O=C(Nc1ccc([C@@H](O)[C@H]2COCC(=O)N2Cc2ccc(F)cc2)cc1)c1ccccc1 [CBK289061] | 120.623
Cc1ccccc1C(=O)NCCNC(=O)c1cccnc1 [CBK269222] | 131.784
O=C(C1=C(O)C(=O)N(CCN2CCOCC2)C1c1ccco1)c1cccs1 (stereo not shown) [CBK264506] | 100
COc1ccc([C@@]23CC[C@@H](NC(=O)Nc4ccc(F)c(F)c4)C[C@@H]2N(C)CC3)cc1O [CBK051630] | 94.1808
CC(C)NCC(O)Cn1c2c(c3ccccc31)CCc1c-2cnn1-c1ccccc1 (stereo not shown) [CBK261107] | 42.4972
O=C(NCc1cccs1)c1ccccc1Nc1cccc(C(F)(F)F)c1 [CBK149557] | 48.4053
O=C(NCc1cccs1)C1CCCN1c1nc(O)cc(C(F)(F)F)n1 (stereo not shown) [CBK004299] | 103.902
COC(=O)[C@@H]1Cc2ncn(C)c2CN1S(=O)(=O)c1ccc(C#N)cc1 [CBK288993] | 133.386
Cn1cc(NC(=O)CCn2c(C(F)F)cc3cccnc32)cn1 [CBK284740] | 119.045
Cn1c(SCC(=O)NCCCN2CCOCC2)nc2ccccc2c1=O [CBK287607] | 111.826
O=C(CC1SC(NC2CCCCCC2)=NC1=O)NCc1c(F)cccc1Cl (stereo not shown) [CBK067656] | 120.482
CCCC(=O)c1ccc(S(=O)(=O)N2CCCN(Cc3cccnc3N3CCOCC3)CC2)cc1 [CBK062900] | 132.08
CC(Oc1ccccc1)c1nnc(SCC(=O)Nc2ccc(Br)cc2F)n1C (stereo not shown) [CBK266364] | 91.3265
CCn1c(C)nnc1SCCNc1cc(C)nc2ccnn12 [CBK306607] | 70.4045
CCN1CCN(C(=O)C2CCCCC2C(=O)O)CC1 (stereo not shown) [CBK270337] | 109.272
c1ccc2c(c1)CCN2c1ncnc2c1nc1n2CCCCC1 [CBK291119] | 118.909
COc1ccc(C(=O)C2=C(O)C(=O)N(CCN(C)C)C2c2cccc([N+](=O)[O-])c2)cc1Cl (stereo not shown) [CBK266474] | 158.996
COc1ccc(Oc2ncnc3c2[nH]c2ccccc23)cc1 [CBK291254] | 140.311
CCOC(=O)c1ccc(-n2sc3ccccc3c2=O)cc1 [CBK115552] | 88.5722
O=c1[nH]c2ncc(-c3ccco3)nc2n1Cc1ccccn1 [CBK064349] | 117.423
C[C@@H]1CN(C)CCN1c1nccnc1OCCOc1cccnc1OCCCCCN(C)C [CBK051566] | 122.156
O=C1NC[C@@H](CCC(=O)N2CCCCC2)N2C[C@@H](NS(=O)(=O)c3ccccc3)C[C@@H]12 [CBK289012] | 142.446
OC(COCc1ccc2c(c1)OCO2)CN1CCN(c2ccccn2)CC1 (stereo not shown) [CBK278246C] | 114.609
Cn1c(=O)n(C)c2cc(CNC(=O)C3NCCc4[nH]cnc43)ccc21 (stereo not shown) [CBK307274] | 99.9153
N#CC(C(N)=O)C(c1ccc(Br)cc1)c1c(-c2ccccc2)nn(-c2nc(-c3ccccc3)cs2)c1O (stereo not shown) [CBK262697] | 87.0091
CN1CCN(CCC(=O)N/N=C/c2ccc(O)cc2O)CC1 [CBK262849] | 112.581

Single entries from above.
In % of control remaining [%], CC(C)NCC(O)Cn1c2c(c3ccccc31)CCc1c-2cnn1-c1ccccc1 (stereo not shown) [CBK261107] reads 42.4972
In % of control remaining [%], Cn1cc(NC(=O)CCn2c(C(F)F)cc3cccnc32)cn1 [CBK284740] reads 119.045
In % of control remaining [%], CCn1c(C)nnc1SCCNc1cc(C)nc2ccnn12 [CBK306607] reads 70.4045

(listing goes on)

SMILES | % of control remaining [%]
C=CCOCc1cc(O)n2nc(SC)c(C(N)=O)c2n1 [CBK008592] | 93.2714
CC(=O)Nc1cccc(C(=O)N2CCCC2c2ccncc2)c1 (stereo not shown) [CBK305080] | 120.897
O=C(Cn1cc(Br)ccc1=O)NC1CCN(Cc2ccccn2)CC1 [CBK305686] | 110.291
CNC(=O)C1(Cc2ccccc2-c2ccccc2C)CCN(C(=O)Cc2ccccc2)CC1 [CBK285901] | 97.8902
COc1cc(C2(O)CCN(Cc3ccccc3)C2)ccc1OCc1ccccc1 (stereo not shown) [CBK045620] | 54.5171
CC1CCN(Cc2c(O)ccc3c(=O)c(-c4cccc(Cl)c4)c(C(F)(F)F)oc23)CC1 [CBK266258] | 194.119
O=C(c1ccco1)N1CCC[C@@H]1[C@@H](O)c1cccs1 [CBK284291] | 103.6
N#Cc1ccccc1CSc1nnc(-c2ccco2)n1-c1ccccc1 [CBK267270] | 111.557
Cc1ccsc1C(=O)Nc1ncn(CC(=O)N2CCCCCC2)n1 [CBK304192] | 61.2708
COc1ccc(C(=O)N2CC[C@@H]3NC(=O)[C@H]4C[C@H](NC(=O)C5CCC5)CN4C(=O)[C@H]32)cc1 [CBK289268] | 82.5517
Cc1ccc(-c2cc(C(=O)NCc3cccnc3)c3ccccc3n2)cc1C [CBK265402] | 100
COc1cc(C(=O)NC(C)C(=O)NN)cc(OC)c1OC (stereo not shown) [CBK262609] | 118.856
COc1cc(Nc2cc(-n3nc(C)cc3C)ncn2)cc(OC)c1OC [CBK288594] | 136.256
CCOC(=O)CSC/C(=N/Nc1ccccc1)c1cccs1 [CBK006956] | 96.0387
Cc1cc(C)n(-c2nc3ccccc3nc2N2CCN(S(=O)(=O)c3ccc4ccccc4c3)CC2)n1 [CBK269134] | 100.118
CC(C)(CNS(=O)(=O)c1ccc(Cl)cc1)OCc1ccccc1 [CBK262088] | 109.179
Cc1ccc2nc(O)cc(C(=O)OCC(=O)c3cccc([N+](=O)[O-])c3)c2c1 [CBK265115] | 100
CC(C)c1ccc(S(=O)(=O)NCC(C)(C)CO)cc1 [CBK043547] | 125.931
CCCCC(=O)NC(c1ccc(Cl)cc1)c1cc([N+](=O)[O-])c2cccnc2c1O (stereo not shown) [CBK293938] | 104.517
Cc1ccc(NC(=O)CN(c2ccccc2)S(=O)(=O)c2ccccc2[N+](=O)[O-])cc1C [CBK262345] | 101.176
COc1ccc2cc(C(=O)NC3CCCN(C)C3)n(C)c2c1 (stereo not shown) [CBK282541] | 125.112
c1coc(COc2cncc(N3CCNCC3)n2)c1 [CBK013393] | 136.411
O=C(Nc1c(F)cccc1F)n1ccc2c(N3CCNCC3)cccc21 [CBK003745C] | 101.712
O=C(NC1CCS(=O)(=O)C1)/C(=C\c1ccccc1)NC(=O)c1ccc([N+](=O)[O-])cc1 (stereo not shown) [CBK261034] | 100
O=C(Cn1c(=O)n(Cc2cccs2)c2ncccc21)NCC1CC1 [CBK283899] | 124.812
CC(C)(C)OC(=O)NCC1(CC(=O)O)CCCCC1 [CBK287030] | 113.79

SMILES | % of control remaining [%]
O=C(c1cccnc1)N1CCN(Cc2cccc(Oc3ccccc3)c2)CC1 [CBK263326G] | 108.742
CCn1cc(S(=O)(=O)N2CCCC3(CCCCC3)C2)c(C)n1 [CBK282756] | 119.679
O=C(c1ncccc1O)N1CC(O)CC1c1cc(F)ccc1F (stereo not shown) [CBK306452] | 111.228
O=C(c1cc(F)c(F)cc1F)N1CCC2(CCCNC2)C1 (stereo not shown) [CBK137068T] | 100.134
COc1ccc(-c2ccc(CCC(=O)O)n2NC(N)=S)cc1 [CBK266018] | 222.554
O=C(NCc1sccc1Cl)Nc1cccc(Cl)c1 [CBK057110] | 102.677
NS(=O)(=O)c1ccc(N2C(=O)C(O)=C(C(=O)c3ccc(Cl)cc3)C2c2ccc([N+](=O)[O-])cc2)cc1 (stereo not shown) [CBK263758] | 100
CCOC(=O)c1ccccc1NC(=O)N[C@@H]1CC[C@@]2(c3ccc(OC)c(OC)c3)CCN(C)[C@H]2C1 [CBK047494T] | 93.5405
O=C1/C(=N\Nc2ccc([N+](=O)[O-])cc2[N+](=O)[O-])c2ccccc2N1CN1CCCCC1 [CBK260926] | 111.778
Cc1ccc2oc(-c3cc(NC(=O)Cn4cnc5c(=O)n(C)c(=O)n(C)c54)ccc3O)nc2c1 [CBK267112] | 130.369
O=C(Cn1cc(C(=O)NCc2ccccc2)ccc1=O)Nc1cc(F)ccc1N1CCCC1 [CBK285998] | 120.559
CC(C)(C)OC(=O)N1CCC(COc2ccc(-c3ccncc3)cn2)CC1 [CBK161777] | 111.769
Cc1cc(C)c(C)c(S(=O)(=O)NCCN2CCCCC2CO)c1C (stereo not shown) [CBK307333] | 121.432
CCn1c2ccccc2c2cc(Nc3cc(-c4cccc5ccccc45)ncn3)ccc21 [CBK090834] | 108.909
S=c1[nH]nc(Cn2ccc(-c3ccccc3)n2)o1 [CBK022019] | 74.6736
Cc1[nH]c2ccccc2c1/C=C1/C(=N)N2C(SCc3ccccc3)=NSC2=NC1=O [CBK265291] | 124.02
CN1CCN(C2c3ccccc3Oc3ccccc32)CC1 [CBK066891] | 164.851
O=C(O)CCn1c2ccc(Cl)cc2c2cc(Cl)ccc21 [CBK261415] | 100
O=C(O)c1cccc(-c2cncc(NCc3ccncc3)n2)c1 [CBK037915] | 95.2123
OCc1ccc(-c2nccnc2NCCc2c[nH]c3ccccc23)cc1 [CBK038004] | 179.499
Cc1oc2ccc(O)cc2c1C(=O)N(C)C(C)Cc1ccccn1 (stereo not shown) [CBK282627] | 108.995
O=c1oc2ccccc2c2nc(-c3ccncc3)ncc12 [CBK288536] | 92.7336
CCOc1cc(O)c(-c2nc(N)ncc2-c2ccc3c(c2)OCCO3)cc1CC [CBK288174] | 133.713
C[C@@H]1CNCCN1c1cc(C(F)(F)F)cc(OCc2ccccc2)n1 [CBK026755] | 115.951
